Where a chain is given by its changes, count along the chain named. In names and notes the source's numbering stands.
B1: Fe(III) BP V287C JPW4039 (conjugate, UniProt P35755 24-332, looked up, variant V287C)
Iron-utilization periplasmic …: DITVYNGQHKEAATAVAKAFEQETGIKVTLNSGKSEQLAGQLKEEGDKTPADVFYTEQTATFADLSEAGLLAPISEQTIQQTAQKGVPLAPKKDWIALSGRSRVVVYDHTKLSEKDMEKSVLDYATPKWKGKIGYVSTSGAFLEQVVALSKMKGDKVALNWLKGLKENGKLYAKNSVALQAVENGEVPAALINNYYWYNLAKEKGVENLKSRLYFVRHQDPGALVSYSGAAVLKASKNQAEAQKFVDFLASKKGQEALVAARAEYPLRADVVSPFNLEPYEKLEAPCVSATTAQDKEHAIKLIEEAGLK
modifications: JPW4039 dye label
B2: Fe(III) BP V287C Fluorescein (conjugate, UniProt P35755 24-332, looked up, variant V287C)
Iron-utilization periplasmic …: B1 Iron-utilization periplasmic …
modifications: fluorescein label
B3: Fe(III) BP V287C NBD (conjugate, UniProt P35755 24-332, looked up, variant V287C)
Iron-utilization periplasmic …: B1 Iron-utilization periplasmic …
modifications: NBD label
B4: histidine BP E167C Pyrene (conjugate, UniProt P0AEU0 23-260, looked up, variant E167C)
Histidine-binding periplasmic …: AIPQNIRIGTDPTYAPFESKNSQGELVGFDIDLAKELCKRINTQCTFVENPLDALIPSLKAKKIDAIMSSLSITEKRQQEIAFTDKLYAADSRLVVAKNSDIQPTVESLKGKRVGVLQGTTQETFGNEHWAPKGIEIVSYQGQDNIYSDLTAGRIDAAFQDEVAASCGFLKQPVGKDYKFGGPSVKDEKLFGVGTGMGLRKEDNELREALNKAFAEMRADGTYEKLAKKYFDFDVYGG
modifications: pyrene label
B5: histidine BP K229C Pyrene (conjugate, UniProt P0AEU0 23-260, looked up, variant K229C)
Histidine-binding periplasmic …: B4 Histidine-binding periplasmic … with C167E, K229C
modifications: pyrene label
B6: histidine BP V163C Pyrene (conjugate, UniProt P0AEU0 23-260, looked up, variant V163C)
Histidine-binding periplasmic …: B4 Histidine-binding periplasmic … with V163C, C167E
modifications: pyrene label
B7: histidine BP Y230C Pyrene (conjugate, UniProt P0AEU0 23-260, looked up, variant Y230C)
Histidine-binding periplasmic …: B4 Histidine-binding periplasmic … with C167E, Y230C
modifications: pyrene label
B8: histidine BP Y88C Pyrene (conjugate, UniProt P0AEU0 23-260, looked up, variant Y88C)
Histidine-binding periplasmic …: B4 Histidine-binding periplasmic … with Y88C, C167E
modifications: pyrene label

Test: Fluorescence emission spectra without and with saturating ligand (wavelength shift, ΔIstd, ΔRmax)
Conditions: emission maximum, absence of ligand
Protocol: Fluorimetry. All measurements were conducted with an SLM Aminco-Bowman series 2 fluorimeter, with sample stirring at 25° C. Fluorescence emission spectra were acquired with excitation and emission slit widths of 4 and 8 nm, respectively. Photomultiplier tube potential was maintained between 400 and 800 volts. Protein concentrations were in the range of 50 to 1000 nM. Fluorophore-specific excitation was at the following approximate wavelengths: tryptophan, 290 nm; acrylodan, 390 nm; fluorescein, 485 nm; pyrene, 340 nm; NBD and NBDE, 490 nm; JPW4039, 485 nm; JPW4042, 470 nm; JPW4045, 470 nm.
Assessment of fluorescent biosensor function. Fluorescence emission spectra of bPBP-fluorophore conjugates were recorded in the absence and presence of saturating ligand concentrations. Spectral changes were characterized by four parameters: wavelength shift (the difference between the wavelengths of emission maximum in the unbound and ligand-saturated states), direction of intensity change (increase or decrease in intensity at the wavelengths of maximum emission in the two states), standard intensity change (ΔIstd), and standard ratiometric change (ΔR). ΔIstd is defined as the normalized intensity change relative to the average intensity, determined at the wavelength mid-point between the two emission maxima:
[formula] where λstd=(λmax, unbound+λmax, saturated)/2 and I1, I2 are the fluorescence intensities at λstd of each spectrum respectively (FIG. 4A). ΔR is defined in terms of two emission bands, A1 ([λ1, λ2]) and A2 ([λ3, λ4]) (FIG. 4B):
[formula] where ^∘A1, […] the areas in the absence of ligand, and ^∞A1, ^∞A2 the areas in the presence of saturating ligand. A computer program was used to enumerate ΔR for all possible pairs of wavelength bands in the two spectra, to identify the optimal sensing condition, defined as the maximum value of ΔR. Adjustable parameters of the algorithm, and their values used for ΔRmax quantities reported here, are: step size (2 nm), step width (10 nm), minimum integration area limit (fraction of total: 0.1), and maximum integration area limit (fraction of total: 1).
With B1 the “λmax,apo (nm)” value was 596. In the case of B2, the “λmax,apo (nm)” value is reported as 521. In the case of B3, the “λmax,apo (nm)” value is reported as 551. With B4 the “λmax,apo (nm)” value was 384. For B5, the “λmax,apo (nm)” value was 384. In the case of B6, the “λmax,apo (nm)” value is reported as 384. With B7 the “λmax,apo (nm)” value was 384. With B8 the “λmax,apo (nm)” value was 384.

Same assay, conditions: emission maximum, saturating ligand (ligand column)
For B1, the “λmax,sat (nm)” value was 595. With B2 the “λmax,sat (nm)” value was 520. For B3, the “λmax,sat (nm)” value was 552. In the case of B4, the “λmax,sat (nm)” value is reported as 384. In the case of B5, the “λmax,sat (nm)” value is reported as 384. For B6, the “λmax,sat (nm)” value was 384. For B7, the “λmax,sat (nm)” value was 384. With B8 the “λmax,sat (nm)” value was 384.

Same assay, conditions: standard intensity change, unbound vs ligand-saturated
In the case of B1, the ΔIstd is reported as 0.13. B2 showed a ΔIstd of 0.21. B3 gave a ΔIstd of 0.05. B4 showed a ΔIstd of 0.21. For B5, the ΔIstd was 0.16. B6 showed a ΔIstd of 0.08. For B7, the ΔIstd was 0.22. B8 gave a ΔIstd of 0.15.

Same assay, conditions: standard ratiometric change, unbound vs ligand-saturated
B1 showed a ΔRmax of 0.59. Work on B2 yielded a ΔRmax of 0.05. Work on B3 yielded a ΔRmax of 0.11. B4 showed a ΔRmax of 1.13. B5 showed a ΔRmax of 0.73. Molecule B6 has a ΔRmax of 0.78. Molecule B7 has a ΔRmax of 0.75. For B8, the ΔRmax was 0.44.

From patent US9625458B2, “Biosensor” (priority 2002, dated 2017)
